Results published in PubChem BioAssay AID1117319 (Southern Research Institute, 2015).
Hit rate of the full screen: of about 260,000 compounds, about 1,500 (0.58%) were called active. Inconclusive means that the source gave no clear call. Such entries were picked first, then a sample of the others.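 Rule for the calls: active = inhibition above a set limit at one or more doses, reproduced on every date tested; inconclusive = results disagree between test dates, or hit never tested in dose response; inactive = the rest.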

The chains behind the UniProt entries cited, without tags or fusion partners. Where a name states a change or a piece, a line headed by the entry shows the natural chain unless it says otherwise.
UniProt P69720: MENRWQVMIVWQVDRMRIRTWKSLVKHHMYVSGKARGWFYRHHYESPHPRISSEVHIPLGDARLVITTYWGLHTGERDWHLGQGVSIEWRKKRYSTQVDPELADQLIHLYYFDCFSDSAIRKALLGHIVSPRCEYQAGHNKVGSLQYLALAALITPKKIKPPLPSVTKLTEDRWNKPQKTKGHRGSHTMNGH
UniProt P69721: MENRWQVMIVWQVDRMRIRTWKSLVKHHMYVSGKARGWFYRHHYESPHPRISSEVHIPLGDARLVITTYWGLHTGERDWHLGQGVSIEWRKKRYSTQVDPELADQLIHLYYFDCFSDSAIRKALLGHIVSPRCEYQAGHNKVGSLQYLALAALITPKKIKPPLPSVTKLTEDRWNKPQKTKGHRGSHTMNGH
UniProt P69722: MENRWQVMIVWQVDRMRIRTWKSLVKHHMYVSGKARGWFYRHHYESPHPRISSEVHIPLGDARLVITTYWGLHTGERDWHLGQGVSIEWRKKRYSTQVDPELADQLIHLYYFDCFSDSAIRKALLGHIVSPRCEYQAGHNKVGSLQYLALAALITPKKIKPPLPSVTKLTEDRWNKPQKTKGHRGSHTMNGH
UniProt P69723: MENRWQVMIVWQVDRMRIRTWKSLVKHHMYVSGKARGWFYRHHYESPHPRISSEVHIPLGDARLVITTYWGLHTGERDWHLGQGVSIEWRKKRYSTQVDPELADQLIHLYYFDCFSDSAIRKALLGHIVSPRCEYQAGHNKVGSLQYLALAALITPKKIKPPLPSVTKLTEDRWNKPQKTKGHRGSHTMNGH
UniProt Q9HC16: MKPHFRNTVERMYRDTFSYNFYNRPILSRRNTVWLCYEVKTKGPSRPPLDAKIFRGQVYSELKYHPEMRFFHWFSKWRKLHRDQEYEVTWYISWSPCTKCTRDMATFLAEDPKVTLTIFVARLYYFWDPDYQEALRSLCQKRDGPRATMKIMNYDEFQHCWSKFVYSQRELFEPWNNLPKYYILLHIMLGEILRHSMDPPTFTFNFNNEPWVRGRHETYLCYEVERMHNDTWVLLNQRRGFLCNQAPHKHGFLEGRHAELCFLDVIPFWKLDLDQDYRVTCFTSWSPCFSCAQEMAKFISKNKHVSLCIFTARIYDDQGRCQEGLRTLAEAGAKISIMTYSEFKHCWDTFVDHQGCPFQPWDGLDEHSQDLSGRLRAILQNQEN

These compounds were tested against Virion infectivity factor (Human immunodeficiency virus type 1 group M subtype B (isolate BH10)) + Virion infectivity factor (Human immunodeficiency virus type 1 group M subtype B (isolate BRU/LAI)) + Virion infectivity factor (Human immunodeficiency virus type 1 group M subtype B (isolate PCV12)) + Virion infectivity factor (Human immunodeficiency virus type 1 group M subtype B (isolate HXB2)) + DNA dC->dU-editing enzyme APOBEC-3G (Homo sapiens) (UniProt P69720+P69721+P69722+P69723+Q9HC16) (assay: inhibitors of Vif binding to APOBEC3G peptide, primary screen, biochemical, TR-FRET, GST-Vif 1-94, biotin-A3G peptide, dose response retest (AID 1117319;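 note: Vif residues 1-94 fused to GST binding biotinylated APOBEC3G peptide 110-148; 0% = full assay without inhibitor and 100% = GST in place of GST-Vif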)). Conditions: hits give high values.

Row | Compound | inhibition
1 | O=C(O)c1ccc(Oc2ccccc2)o1 | inconclusive: 55.1%
2 | CN(C(=O)C1CCOC1)c1nnc(-c2ccccn2)s1 (stereo not given) | inconclusive: 49.6%
3 | COCCn1c(SCC(=O)c2ccc(F)cc2)nnc1C(C)C | inconclusive: 39.4%
4 | CCOc1c(OC(C)=O)ccc(/C=C2\N=C(SCC)SC2=O)c1[N+](=O)[O-] | inactive: 9.49%
5 | COc1cc2c(cc1OC)C(C1C(=O)CC(C)(C)CC1=O)N(C(=O)CCl)CC2 (stereo not given) | inconclusive: 53.2%
6 | Nc1cc2c(cc1C(=O)c1ccc(Cl)cc1)OCCO2 | inconclusive: 58.7%
7 | O=C(Nc1nnc(-c2ccccc2SCc2ccccc2F)s1)Nc1ccccc1F | inconclusive: 35.7%
8 | COc1ccc(OCC(O)CNCCNc2nccc(C(F)(F)F)n2)cc1 (stereo not given) | inconclusive: 33.4%
9 | Cc1ccc(S(=O)(=O)N=S(CC2CC2(Cl)Cl)CC2CC2(Cl)Cl)cc1 (stereo not given) | inconclusive: 46.5%
10 | COc1ccc(Oc2nnc(C)c3ccccc23)cc1 | inconclusive: 51.4%
11 | CCOC(=O)C1=C(Cc2ccc(C)cc2)C(=O)c2ccccc2C1=O | inconclusive: 50.9%
12 | COc1ccc(CNC(=O)COC(=O)c2c(NC(C)=O)sc(C)c2C)cc1OC | inactive: 1.62%
13 | CCc1ccccc1NC(=O)C(C#N)Cc1cccnc1 (stereo not given) | inconclusive: 37.3%
14 | Cc1cc(C)n(-c2ccc(C(=O)Nc3ccccc3N3CCOCC3)cc2)n1 | inconclusive: 44.5%
15 | O=[N+]([O-])c1c(NCCCO)cc(Sc2ccc(Cl)cc2)c2nonc12 | inconclusive: 41.4%
16 | Cc1cc[n+](-c2[nH]c(=O)sc2/C=N/N=C(\[O-])c2ccccc2)cc1C | inconclusive: 36.8%
17 | O=C(O)C1OC(Oc2cc3oc(-c4ccccc4)cc(=O)c3c(O)c2O)C(O)C(O)C1O (stereo not given) | inconclusive: 58.6%
18 | Cc1ccc(NC(=O)C(=O)NCc2ccc(/C=N/NC(=O)c3c(C)nc4cc(C)ccn34)o2)cc1 | inactive: 19.2%
19 | CCCC1=C(C(=O)OCC)C(c2ccc(F)cc2)n2ncnc2N1 (stereo not given) | inconclusive: 61.9%
20 | NNC(=O)CCc1nc2ccc(O)cc2[nH]1 | inconclusive: 48.3%
21 | COc1ccc(-c2nnc(SCC(=O)N3CCN(c4ccccc4)CC3)o2)cc1OC | inconclusive: 37.7%
22 | CCCCS/C(=C(/C#N)C(N)=O)c1cc2c([nH]1)CCCC2 | inconclusive: 52.4%
23 | CCOC(=O)c1c[nH]c2c3c(ccc2c1=O)CCCC3 | inconclusive: 48.5%

Row | Compound | inhibition
24 | CC(C)c1ccc(C(=O)NC2=NCCS2)cc1 | inconclusive: 40.7%
25 | Cc1cc(-n2c(C)cc(C(=O)CSc3nnnn3-c3ccc(Cl)cc3)c2C)no1 | inconclusive: 56.3%
26 | COC(=O)c1ccc2nc(NC(=O)CSCC(=O)OCC(=O)c3ccccc3)sc2c1 | inconclusive: 36.9%
27 | O=C1C2C3CCCC3=C3CCCC3C2C(=O)N1c1cccc(Cl)c1 (stereo not given) | inconclusive: 54.5%
28 | O=S(=O)(Nc1ccc(C(F)(F)F)cn1)c1ccccc1 | inconclusive: 64.6%
29 | CCOC(=O)c1ccc(NC(=S)N(CCN2CCCCCC2)Cc2cccs2)cc1 | inconclusive: 55.8%
30 | Cc1cc(C(=O)OCC(=O)NCc2ccco2)c(C)o1 | inconclusive: 44.6%
31 | NC(=O)C[C@@H]1NC(=O)c2cc([N+](=O)[O-])cc(F)c2NCCCC[C@@H](C(N)=O)NC(=O)[C@H](CO)NC1=O | inconclusive: 47.3%
32 | N#Cc1c(Nc2cccc(F)c2)sc2c(O)cc(=O)[nH]c12 | inactive: -5.54%
33 | Cc1c(C(=O)Nc2ccccc2F)sc2nc3n(c(=O)c12)CCC3 | inconclusive: 38.8%
34 | O=C(O)CCCC(=O)NS(=O)(=O)c1ccc(Cl)cc1 | inconclusive: 35.6%
35 | Cc1ccc(NC(=O)CCSc2nnc(C)o2)cc1 | inconclusive: 52.2%
36 | C/C(CCc1ccc2c(c1)OCO2)=N\N=C1\NC(=O)CC(C(=O)Nc2ccc(Cl)cc2)S1 (stereo not given) | inconclusive: 58%
37 | COc1ccc(OC)c(NC(=O)CSc2ncccc2C(=O)O)c1 | inconclusive: 36.9%
38 | COc1ccc2[nH]c(=O)cc(C(=O)O)c2c1 | inconclusive: 59.6%
39 | Cc1sc(NC(=O)c2cccs2)c(C(=O)OC(C)C)c1C | inactive: 2.47%
40 | CCCN(CCC)C(=O)Nc1ccc(F)cc1F | inconclusive: 46.8%
41 | Cc1ccc(OCC(=O)Nc2ccccc2Sc2ccc(Cl)cc2)c([N+](=O)[O-])n1 | inconclusive: 34.5%
42 | Cn1c(=O)cc(N2CCc3ccccc32)[nH]c1=O | inconclusive: 23.7%
43 | Cc1cccc(C)c1-n1c(C)cc(/C=N\Nc2ccc([N+](=O)[O-])cn2)c1C | inactive: 10.6%
44 | CCCc1noc2c1C(c1ccoc1)C(C#N)=C(N)N2 (stereo not given) | inconclusive: 21.2%
45 | Cn1c(CNc2cccc(C(F)(F)F)c2)n[nH]c1=S | inconclusive: 57.7%
46 | O=[N+]([O-])c1c(NCCCO)cc(Sc2nc3ccccc3s2)c2nonc12 | inconclusive: 55.5%

Row | Compound | inhibition
47 | Cc1nnc(SCc2nc3sc4c(c3c(=O)[nH]2)CCCC4)n(N)c1=O | inconclusive: 52.3%
48 | COc1ccc(NC(=S)N(CCc2nc3cc(C)c(C)cc3[nH]2)Cc2cccnc2)cc1 | inconclusive: 34.3%
49 | C=CCNC(=S)/C(=C(/[O-])c1ccc([N+](=O)[O-])cc1)[n+]1ccccc1 | inconclusive: 57.2%
50 | COc1cc2c(cc1OC)CN(Cc1nc3ccsc3c(=O)[nH]1)CC2 | inactive: 7.56%
51 | Cc1ccc(OCC(=O)NN=C2c3ccccc3-c3ccccc32)cc1 | inconclusive: 53%
52 | Cc1nn(-c2ccccc2)c(C)c1NC(=O)CCl | inconclusive: 53.4%
53 | CCC1SC2=NCN(c3ccccc3)CN2C1=O (stereo not given) | inconclusive: 36.7%
54 | Nc1nc(C2C(=O)CCCC2=O)cs1 | inconclusive: 59.1%
55 | CC(=O)N(C1=C(Cl)C(=O)c2ccccc2C1=O)C1CCCCC1 | inconclusive: 47.6%
56 | COc1ccc(OCC(Cn2cnc3ccccc32)OC(C)=O)cc1 (stereo not given) | inconclusive: 44.1%
57 | CCOc1ccc(N(CC(=O)Nc2ccc(C)c(C)c2)S(=O)(=O)c2c(C)noc2C)cc1 | inconclusive: 46.7%
58 | CC(C)Cc1ccc(S(=O)(=O)Nc2ccccn2)cc1 | inconclusive: 43.6%
59 | CCCCn1c(Cl)nc2c1c(=O)n(C)c(=O)n2C | inconclusive: 34.9%
60 | CN(C)CCNC(=S)Nc1ccc(Br)cc1 | inconclusive: 49.5%
61 | Cc1cccc(C)c1OCC(=O)N/N=C/C=C/c1ccco1 | inconclusive: 63.4%
62 | CC(C)c1ccc(/C=N/n2nnnc2Nc2ccccc2)cc1 | inconclusive: 36.5%
63 | CS(=O)(=O)Nc1ccc(S(=O)(=O)N2CCCC2)cc1 | inconclusive: 52.4%
64 | Cc1ccc2oc(/N=C(\N)NC(=O)C(C)(C)C)nc2c1 | inconclusive: 41%
65 | CC(C[N+](C)(C)C)OC(N)=O (stereo not given) | inconclusive: 39.3%
66 | COc1ccc(C2C(C#N)=C3NC(=O)c4c(sc5c4CCCCC5)N3C3=C2C(=O)CC(C)(C)C3)cc1 (stereo not given) | inconclusive: 34%
67 | COc1ccccc1CN1CCN(C(=O)c2ccncc2)CC1 | inconclusive: 42.1%
68 | Cc1nonc1C1CCCN1Cc1cn[nH]c1-c1ccc2c(c1)OCO2 (stereo not given) | inconclusive: 56.7%
69 | O=C(/C=C/c1ccccc1[N+](=O)[O-])OCC(=O)c1ccccc1 | inactive: -4.21%

Row | Compound | inhibition
70 | O=C(NCc1ccccc1)c1ccc(F)c(S(=O)(=O)N2CCOCC2)c1 | inconclusive: 43%
71 | O=C(N=Nc1ccc(NOC(=O)c2ccccc2Br)cc1)c1ccccc1O | inconclusive: 44.6%
72 | CCOC(=O)CSc1nnc(CNC(=O)c2cccs2)n1-c1cc(C)ccc1C | inconclusive: 34.4%
73 | CSCC[C@H](NC(=O)Nc1ccc(OC(F)(F)F)cc1)C(=O)O | inconclusive: 50.9%
74 | COc1ccc(CC2(CO)CCN(C/C=C/c3ccccc3OC)CC2)cc1 | inconclusive: 37.5%
75 | O=[N+]([O-])c1ccc2c(c1)c(-c1ccccc1)nc1nncn12 | inactive: 1.68%
76 | CCn1c(CNc2ccc(F)cc2)nnc1SCC(=O)Nc1ccc(OC)cc1OC | inconclusive: 57.8%
77 | Cc1c(OC(=O)c2ccc([N+](=O)[O-])cc2)c2c(c[n+]1C)COC(C)(C)OC2 | inconclusive: 40.9%
78 | COc1ccc2[nH]c(=O)c(CN(Cc3ccccc3OC)Cc3nnnn3CC3CCCO3)cc2c1 (stereo not given) | inconclusive: 36.5%
79 | Cc1cc(=O)[nH]c2n[nH]c(-c3ccccc3)c12 | inconclusive: 43.1%
80 | O=C(CSc1nc2ccccc2[nH]1)N1CCN(S(=O)(=O)c2ccc(Cl)cc2)CC1 | inconclusive: 58.6%
81 | CCN1C(=O)CC(c2ccco2)Sc2ccccc21 (stereo not given) | inconclusive: 34.1%
82 | CCOCCCn1c(=NC(C)=O)c(C#N)cc2c(=O)n3cccc(C)c3nc21 | inconclusive: 57.7%
83 | CCCCCNCC(=O)Nc1cccc(C(=O)Nc2cccc(C(F)(F)F)c2)c1 | inconclusive: 46.8%
84 | CC(=O)Nc1ccc(N2CCOCC2)c(Cl)c1 | inconclusive: 33.7%
85 | COC(=O)CCc1c(C)c(C#N)c2nc3ccccc3n2c1N1CCCC1 | inconclusive: 48.4%
86 | O=C(O)c1cn(-c2ccc(F)c(F)c2)c2c(F)c(F)c(F)c(F)c2c1=O | inconclusive: 39.5%
87 | O=C(NCc1ccccc1Cl)C1CCC(=O)N(C2CC2)C1 (stereo not given) | inconclusive: 48.1%
88 | Cc1noc(C)c1COc1cccc(C(=O)N(C)Cc2cccs2)c1 | inactive: -1.46%
89 | O=C(CSc1ncnc2sccc12)Nc1ccccc1 | inactive: -6.5%
90 | Nc1nc(SCC(=O)Nc2cccnc2Cl)n[nH]1 | inconclusive: 36.3%

Quoted from above, compounds 66 to 88
Row | Compound | inhibition
66 | COc1ccc(C2C(C#N)=C3NC(=O)c4c(sc5c4CCCCC5)N3C3=C2C(=O)CC(C)(C)C3)cc1 (stereo not given) | inconclusive: 34%
67 | COc1ccccc1CN1CCN(C(=O)c2ccncc2)CC1 | inconclusive: 42.1%
68 | Cc1nonc1C1CCCN1Cc1cn[nH]c1-c1ccc2c(c1)OCO2 (stereo not given) | inconclusive: 56.7%
69 | O=C(/C=C/c1ccccc1[N+](=O)[O-])OCC(=O)c1ccccc1 | inactive: -4.21%
70 | O=C(NCc1ccccc1)c1ccc(F)c(S(=O)(=O)N2CCOCC2)c1 | inconclusive: 43%
71 | O=C(N=Nc1ccc(NOC(=O)c2ccccc2Br)cc1)c1ccccc1O | inconclusive: 44.6%
72 | CCOC(=O)CSc1nnc(CNC(=O)c2cccs2)n1-c1cc(C)ccc1C | inconclusive: 34.4%
73 | CSCC[C@H](NC(=O)Nc1ccc(OC(F)(F)F)cc1)C(=O)O | inconclusive: 50.9%
74 | COc1ccc(CC2(CO)CCN(C/C=C/c3ccccc3OC)CC2)cc1 | inconclusive: 37.5%
75 | O=[N+]([O-])c1ccc2c(c1)c(-c1ccccc1)nc1nncn12 | inactive: 1.68%
76 | CCn1c(CNc2ccc(F)cc2)nnc1SCC(=O)Nc1ccc(OC)cc1OC | inconclusive: 57.8%
77 | Cc1c(OC(=O)c2ccc([N+](=O)[O-])cc2)c2c(c[n+]1C)COC(C)(C)OC2 | inconclusive: 40.9%
78 | COc1ccc2[nH]c(=O)c(CN(Cc3ccccc3OC)Cc3nnnn3CC3CCCO3)cc2c1 (stereo not given) | inconclusive: 36.5%
79 | Cc1cc(=O)[nH]c2n[nH]c(-c3ccccc3)c12 | inconclusive: 43.1%
80 | O=C(CSc1nc2ccccc2[nH]1)N1CCN(S(=O)(=O)c2ccc(Cl)cc2)CC1 | inconclusive: 58.6%
81 | CCN1C(=O)CC(c2ccco2)Sc2ccccc21 (stereo not given) | inconclusive: 34.1%
82 | CCOCCCn1c(=NC(C)=O)c(C#N)cc2c(=O)n3cccc(C)c3nc21 | inconclusive: 57.7%
83 | CCCCCNCC(=O)Nc1cccc(C(=O)Nc2cccc(C(F)(F)F)c2)c1 | inconclusive: 46.8%
84 | CC(=O)Nc1ccc(N2CCOCC2)c(Cl)c1 | inconclusive: 33.7%
85 | COC(=O)CCc1c(C)c(C#N)c2nc3ccccc3n2c1N1CCCC1 | inconclusive: 48.4%
86 | O=C(O)c1cn(-c2ccc(F)c(F)c2)c2c(F)c(F)c(F)c(F)c2c1=O | inconclusive: 39.5%
87 | O=C(NCc1ccccc1Cl)C1CCC(=O)N(C2CC2)C1 (stereo not given) | inconclusive: 48.1%
88 | Cc1noc(C)c1COc1cccc(C(=O)N(C)Cc2cccs2)c1 | inactive: -1.46%
